From ChEMBL document CHEMBL3988442, “University of Dundee, Small-Polar-MMV Screening Library” (2021).

Protein sequences, listed by entry. Tags and fused reporters are not part of them. Residues count along the entry.
UniProt A4I591, 1-473: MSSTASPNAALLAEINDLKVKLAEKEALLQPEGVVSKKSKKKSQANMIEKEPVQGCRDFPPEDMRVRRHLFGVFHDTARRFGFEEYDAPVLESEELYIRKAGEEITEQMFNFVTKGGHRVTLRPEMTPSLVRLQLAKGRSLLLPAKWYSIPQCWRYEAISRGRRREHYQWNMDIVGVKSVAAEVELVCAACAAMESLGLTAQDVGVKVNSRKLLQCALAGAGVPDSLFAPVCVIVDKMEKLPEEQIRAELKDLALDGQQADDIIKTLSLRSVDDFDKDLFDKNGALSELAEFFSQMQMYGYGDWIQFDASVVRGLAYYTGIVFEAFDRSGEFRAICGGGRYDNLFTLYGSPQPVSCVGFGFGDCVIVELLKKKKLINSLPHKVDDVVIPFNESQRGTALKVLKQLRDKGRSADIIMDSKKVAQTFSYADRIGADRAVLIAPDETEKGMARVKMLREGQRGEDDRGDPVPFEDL
UniProt P9WFT3, whole entry: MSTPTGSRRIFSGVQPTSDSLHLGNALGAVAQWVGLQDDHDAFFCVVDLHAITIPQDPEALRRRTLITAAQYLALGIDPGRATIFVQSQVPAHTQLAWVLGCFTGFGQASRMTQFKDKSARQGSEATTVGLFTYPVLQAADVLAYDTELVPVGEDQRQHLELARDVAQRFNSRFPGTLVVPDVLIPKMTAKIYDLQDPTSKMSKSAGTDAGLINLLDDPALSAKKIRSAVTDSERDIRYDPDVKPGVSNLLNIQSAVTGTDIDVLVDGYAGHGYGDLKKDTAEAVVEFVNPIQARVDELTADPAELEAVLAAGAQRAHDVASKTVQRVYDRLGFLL
UniProt P9WNZ1, whole entry: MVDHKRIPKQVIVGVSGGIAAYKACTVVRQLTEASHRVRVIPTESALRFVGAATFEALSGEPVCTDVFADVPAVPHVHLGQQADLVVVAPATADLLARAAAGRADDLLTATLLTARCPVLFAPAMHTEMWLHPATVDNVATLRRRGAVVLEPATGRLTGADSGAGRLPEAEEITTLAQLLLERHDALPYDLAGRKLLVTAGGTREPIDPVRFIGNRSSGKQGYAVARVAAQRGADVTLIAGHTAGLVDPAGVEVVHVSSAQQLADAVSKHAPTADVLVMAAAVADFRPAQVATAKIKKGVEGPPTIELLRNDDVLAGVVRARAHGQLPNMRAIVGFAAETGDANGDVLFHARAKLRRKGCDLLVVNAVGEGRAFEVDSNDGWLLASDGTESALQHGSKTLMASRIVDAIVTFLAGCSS

The filed quantity is “Percent Effect” (%).
The controls that fix the scale are not given in the record; negative values are as filed.
This is an unselected part of the compounds tested.
Two or more numbers in one place are separate tests of the same structure; such repeats can differ widely.
A dash means the value is not listed here; it may have been measured.

LiHisRS: 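Histidine-tRNA ligase, Leishmania infantum (UniProt A4I591). Enzyme assay of histidyl-tRNA synthetase; the read-out is not stated. Tested at 30 µM. The record gives no direction; compounds that gave an IC50 in retests scored well above the rest, so higher reads as stronger inhibition. The assay is labelled LdHisRS but filed under L. infantum. Of about 69,000 compounds tested this way, about 410 (0.6%) reached 50% or more in at least one test.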
MtTrpRS: 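Enzyme assay of tryptophanyl-tRNA synthetase; the read-out is not stated. Target: Tryptophan-tRNA ligase, Mycobacterium tuberculosis (UniProt P9WFT3). Tested at 10 µM. Higher most likely means stronger inhibition; the record gives no direction and few retests gave an IC50. About 65,000 compounds were tested under these conditions; 0.098% (about 64) showed 50% or more at least once.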
Toxoplasma: 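Assay of Toxoplasma gondii numbers, read through their beta-galactosidase reporter with a colour substrate. Compounds at 10 µM. The record gives no direction; the compounds picked for IC50 retests had high values, so higher reads as fewer parasites. About 67,000 compounds were tested under these conditions; 0.38% (about 260) showed 50% or more at least once.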
CoaBC: 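Coenzyme A biosynthesis protein CoaBC, Mycobacterium tuberculosis (UniProt P9WNZ1). Enzyme assay of CoaBC with a phosphate dye (Biomol Green) read at 650 nm. Concentration: 30 µM. Higher reads as stronger inhibition, judged from the few compounds that gave an IC50. Most strong results did not repeat in a second test. Size under these conditions: about 67,000 compounds, about 40 of them at 50% or above in at least one test.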

compound	LiHisRS	MtTrpRS	Toxoplasma	CoaBC
Cc1c(Br)c(C(F)F)nn1C(C)C(=O)O (configuration not stated)	16.05	0.7638	0.6407	-0.2551
N#Cc1cccc(SCCS(N)(=O)=O)c1	14.42	0.7583	-6.455	10.13
CCc1nc(NCc2ccccn2)c2c(n1)c(C)nn2C	14.16	5.305	20.03	5.166
Cc1nn(C)c(N(C)C)c1CNC1CCCCNC1=O (configuration not stated)	8.333	-4.025	-5.692	7.143
CC(C)c1nc2n(n1)CC(NCc1nnc(C(C)C)o1)CC2 (configuration not stated)	42.86	-3.678	5.112	1.542
CN1CCN(c2cc(CNCc3cccc4c3OCO4)ccn2)CC1	9.091	-3.786	-2.076	-21.89
CC(=O)c1cc(CN2CCCCC2c2nc3cc(F)ccc3[nH]2)cs1 (configuration not stated)	6.25	-2.668	-5.792	1.799
Cc1ccc(Nc2nccc(C3CCCN(CC(=O)N(C)C)C3)n2)nc1 (configuration not stated)	18.25	2.115	-0.721	-6.218
Cl.c1cnc(N2CCCC(NCc3ccc(-n4ccnc4)cc3)C2)nc1 (configuration not stated)	-	-	3.937	-
CCOC(=O)CC(c1ccc(OC)c(OC)c1)c1c(O)n[nH]c1C (configuration not stated)	5.495	2.925	-9.625	-5.425
O=C(O)C(F)(F)F.[H][C@@]12C[C@H](C(=O)NC3CCCC3)CN(Cc3ccoc3)[C@]1([H])CCO2	-	-	37.04	-
Cc1ccc(CN2CCc3ncc(CNS(C)(=O)=O)n3CC2)o1.O=C(O)C(F)(F)F	-	-	-0.4027	-
CC(C)c1ccc(CN2CCC3(CCCN(c4nncs4)C3)C2)cc1.O=C(O)C(F)(F)F (configuration not stated)	-	-	6.326	-
N#Cc1ccccc1N1CCCN(C(=O)CCc2ccsc2)CC1	5.357	12.07	-36.7	-1.364
Cn1ccc(C(=O)NC2CCC23CCN(Cc2cccnc2)CC3)c1.O=C(O)C(F)(F)F.O=C(O)C(F)(F)F (configuration not stated)	-	-	10.54	-
Cc1cc(N(C)Cc2ccsc2)n2nc(C)c(C)c2n1	17.81	1.526	4.521	5.057
Cc1cnc(N2Cc3nccn3CC(Cn3ncccc3=O)C2)nc1.O=C(O)C(F)(F)F (configuration not stated)	-	-	4.099	-
CS(=O)(=O)c1cncnc1C1CCCN(C(=O)Nc2ccc(F)cc2)C1 (configuration not stated)	4.348	-6.22	-2.074	-10.78
CNC(=O)CN1CCC2(CCCN(CC3CCOC3)C2)CC1 (configuration not stated)	15.45	-	-	5.185
COc1cccc([C@H]2CN(C(=O)c3ccccc3)[C@@H]3CCCN[C@H]23)c1	2.069	10.2	-	-1.854
FC(F)Oc1ccc(CNCc2cc(Br)c3c(c2)OCO3)cc1	5.759	2.601	-6.804	3.913
CCOC(=O)c1sc2ccsc2c1CNC(=O)COC	7.339	3.483	8.799	4.857
COCCN(c1ccncc1)S(=O)(=O)c1cc(C)c(F)cc1F	14.29	1.125	3.127	0.9724
O=C(c1cncnc1)N1Cc2ccccc2OC2(CCOCC2)C1	-1.053	1.101	-7.2	-1.217
Cc1cc(F)c(S(=O)(=O)N(C)CCn2cccn2)cc1F	-0.8772	2.593	2.299	-3.733
CCOCc1cnc2n1CCN(Cc1scnc1C)C2C (configuration not stated)	15.79	-1.803	-	5.092
c1cncc(NCCNC2CSCCSC2)c1	74.29	2.252	-3.244	13.41
Cc1nc(S(=O)(=O)N2CCSC3(CCCCC3)C2)cn1C	4.819	-2.667	-3.483	6.311
Cc1ccc2c(c1)CN(C(=O)c1ccccc1F)C(CN(C)C)CO2.Cl (configuration not stated)	-	-	9.545	-
O=C(CC1CCCC1)N1CC[C@H]2[C@H]1CCN2c1nncs1	20.69	10.03	-	-
N#Cc1cc(NS(=O)(=O)c2ccc(C(=O)O)cc2F)ccc1F	23.81	2.582	2.125	-0.1186
Cc1noc(C)c1CCC(=O)N1CCCC(n2cccn2)C1 (configuration not stated)	4.464	-0.807	-15.56	3.959
Cc1cccc(N2CCN(C(=O)C3CC4(CCNCC4)CN3)CC2)n1 (configuration not stated)	-65.75	-0.7452	-2.657	-36.43
COC(=O)CNC(=O)c1cccc(C(=O)N(C)c2ccccc2)c1	18.28	-0.859	-3.714	2.314
Cc1nc(Nc2nnc(C)s2)cc(C2CCCN2C)n1 (configuration not stated)	8.029	-0.1762	-0.4992	3.175 & 25.39
Cc1ccc(S(=O)(=O)NC(=O)c2cccc3c2OCCO3)c(C)c1	1.923	1.639	-0.6568	-1.919
CC(C)c1nc(CN(C)C(=O)C(O)c2ccc(Cl)cc2)cs1 (configuration not stated)	17.33	1.34	-16.88	5.765
CCc1cccc(N2CCC(NC(=O)CCNC(N)=O)CC2)c1	4.348	0.2556	-9.488	2.672
CN(CCn1nc2ccccn2c1=O)CC(=O)N1CCCC1	5.714	-6.038	1.86	0.6748
COCCN1CCC12CCN(C(=O)c1ccc(C)nc1)C2.O=C(O)C(F)(F)F (configuration not stated)	-	-	-3.318	-
Cc1ccc(N2CCCC3(CCCC(=O)N3)C2)nn1.O=C(O)C(F)(F)F (configuration not stated)	-	-	2.427	-
O=C(c1cscn1)N1CCCCC1c1nc2cc(F)ccc2[nH]1 (configuration not stated)	13.58	3.055	12.54	2.041
CN1CCCN(S(=O)(=O)c2cnn(C)c2)c2cc(Cl)ccc21	21.92	-2.601	-8.706	10.12
CCN(CC(=O)Nc1cc(Cl)ccc1C)C(=O)c1ccncc1	18.58	-1.511	9.745	1.402
COc1cccc(N2CCN(CC[C@H](O)c3ccccc3)CC2=O)c1	8.602	-3.924	-0.9798	-3.909
O=C(Nc1ccc(Cl)cn1)c1nn(C2CCS(=O)(=O)C2)c2c1CCCC2 (configuration not stated)	17.5	5.153	-21.3	0.6329
COCCNC(=O)[C@H]1CC[C@@H]2[C@@H](CCN2S(C)(=O)=O)O1	22.86	4.557	-	5.212
CC(C)NC(=O)CC(C)NCc1ccc(F)cc1Cl (configuration not stated)	7.692	-4.749	-0.8954	-5.433
CCC(C)c1ccc(NC(=O)C2CCN(C(=O)N(C)C)CC2)cc1 (configuration not stated)	3.279	0.9449	-3.162	0.2558
CN1CCC2(CCN(C(=O)c3cccnc3)C2)C1 (configuration not stated)	17.27	-	-31.55	-0.4938
CN(CC1CCOC1)S(=O)(=O)c1cccc(C(=O)N2CCCCCC2)c1 (configuration not stated)	16.48	0.5825	-29.56	-0.4819
CNC(=O)c1cn(C)c(-c2nc3cc(NC(C)=O)ccc3n2C)c1OC	5.263	2.871	-9.083	1.263
Cn1cc2c(n1)C(CNCC1CCOCC1)OCC2.O=C(O)C(F)(F)F.O=C(O)C(F)(F)F (configuration not stated)	-	-	-8.368	-
Cc1ccccc1-c1cncc(C2CCN(CC(=O)N(C)C)CC2)n1	12.37	-	-6.261	1.211
COCCNC(=O)CNC(=O)c1nc(Cc2c(Cl)cccc2Cl)no1	14.29	2.617	11.78	-2.594
Cc1ccc2c(c1)CCC21CCN(C(=O)CN(C)C)CC1.O=C(O)C(F)(F)F	-	-	4.789	-
CCN1CCC2(COCc3cnc(NCC4CC4)nc32)C1 (configuration not stated)	0	-1.562	-	-12.26
Cc1cnc(C)c(N2CCN(Cc3ccc(-c4cc[nH]n4)o3)CC2)n1	26.21	5.861	-6.167	8.036

The last 7 entries again:

compound	LiHisRS	MtTrpRS	Toxoplasma	CoaBC
CNC(=O)c1cn(C)c(-c2nc3cc(NC(C)=O)ccc3n2C)c1OC	5.263	2.871	-9.083	1.263
Cn1cc2c(n1)C(CNCC1CCOCC1)OCC2.O=C(O)C(F)(F)F.O=C(O)C(F)(F)F (configuration not stated)	-	-	-8.368	-
Cc1ccccc1-c1cncc(C2CCN(CC(=O)N(C)C)CC2)n1	12.37	-	-6.261	1.211
COCCNC(=O)CNC(=O)c1nc(Cc2c(Cl)cccc2Cl)no1	14.29	2.617	11.78	-2.594
Cc1ccc2c(c1)CCC21CCN(C(=O)CN(C)C)CC1.O=C(O)C(F)(F)F	-	-	4.789	-
CCN1CCC2(COCc3cnc(NCC4CC4)nc32)C1 (configuration not stated)	0	-1.562	-	-12.26
Cc1cnc(C)c(N2CCN(Cc3ccc(-c4cc[nH]n4)o3)CC2)n1	26.21	5.861	-6.167	8.036